This assay has as its system BDF1 mice, P388 leukemia ip, median survival T/C. Kind of assay: NCI In Vivo Anticancer Drug Screen. Data for tumor model P388 Leukemia (intraperitoneal) in B6D2F1 (BDF1) mice. To be noted: T/C endpoint: median survival time, higher T/C = longer survival. The method, boiled down:
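Antitumour effect was judged in vivo: survival in drug-treated mice, normalised to that of vehicle-dosed controls, gives the reported T/C.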

[1] abbreviates: dose: 200.0 mg/kg/injection, schedule: Q01DX009 (ip), vehicle: Klucel (hydroxypropylcellulose) (HPC).
[2] abbreviates: dose: 400.0 mg/kg/injection, schedule: Q04DX003 (ip), vehicle: saline with Tween-80.
Where [3] appears, read: dose: 100.0 mg/kg/injection, schedule: Q01DX009 (ip), vehicle: Klucel (hydroxypropylcellulose) (HPC).
Where [4] appears, read: dose: 400.0 mg/kg/injection, schedule: Q01DX009 (ip), vehicle: saline with Tween-80.
Where [5] appears, read: dose: 200.0 mg/kg/injection, schedule: Q04DX003 (ip), vehicle: saline with Tween-80.
Setting [6] is: dose: 100.0 mg/kg/injection, schedule: Q04DX003 (ip), vehicle: saline.

The list is a part of this screen's results and no random one: it gathers tests that were run many times, whatever their T/C, doses with no T/C, and many T/C values between a quarter and a half above the control. Other doses and runs of a compound stand elsewhere. T/C is the treated group as % of the vehicle group. Some entries give survivors of the animals treated and no T/C: the source holds a T/C of zero for them, seemingly a mark for toxic or unscored doses. Some doses without a T/C left all or most animals alive at the check, yet need not have been tolerated: the source hardly ever lists a survival T/C far under the control, and the zero likely stands for such cases as well. Counts of survivors are from the toxicity check (mostly the fifth day) where no day follows; animals may have died later. Schedules are NCI's codes, taken here to give the interval after Q, in days (D) or hours (H), and the number of doses after X. Some entries were tested several times; their values stand side by side, smallest first. For survival time, the PubChem record calls one and a half times the control and up active, and a quarter to a half above the control has no call in these data; cut-offs in other NCI protocols can differ. Some T/C values are followed by the survivors on the day toxicity was checked, most often the fifth; where none is given, no animal had died by that day.

On to `C=CC12COC(=O)C(=C)C1C(O)C1C(=C)C(=O)OC1C2` (configuration not stated), for which the T/C (dose: 1.88 mg/kg/injection, schedule: Q01DX009 (ip), vehicle: saline + alcohol) is 136 % of control and the T/C (dose: 7.5 mg/kg/injection, schedule: Q01DX009 (ip), vehicle: saline + alcohol) was 127 % of control. In addition, the survivor count (dose: 30.0 mg/kg/injection, schedule: Q01DX009 (ip), vehicle: saline + alcohol) was 0 of 6.
Regarding `Oc1c(Cl)cc(Cl)cc1C1N2CCCCC2C2c3cccn3-c3ccccc3N21` (configuration not stated), the survivor count under setting [1] is 6 of 6.
Turning to `CCCC(C)(C)SSC(C)(C)CCC`, the survivor count runs as follows: (dose: 200.0 mg/kg/injection, schedule: Q01DX009 (ip), vehicle: saline with Tween-80) 6 of 6; under setting [2], 5 of 6.
On to `CC1(C)N=C(N)N=C(N)N1c1ccc(C(N)=O)cc1`, for which the T/C (dose: 200.0 mg/kg/injection, schedule: Q01DX005 (ip), vehicle: Klucel (hydroxypropylcellulose) (HPC)) was 127 % of control [5 of 6 alive].
`Cc1ccc(C(Br)C2=CC(C)(C)c3ccccc3C2=O)cc1` (configuration not stated): the T/C by setting is: under setting [3], 130 % of control; under setting [1], 130 % of control; (dose: 400.0 mg/kg/injection, schedule: Q01DX009 (ip), vehicle: Klucel (hydroxypropylcellulose) (HPC)) 130 % of control. The survivor count under setting [3] is 6 of 6.
Take `COc1cccc2c1C(=O)c1c(O)c3c(c(O)c1C2=O)CC(O)(/C(C)=N\NC(=O)N/N=C(\C)C1(O)Cc2c(O)c4c(c(O)c2C(OC2CC(N)C(O)C(C)O2)C1)C(=O)c1c(OC)cccc1C4=O)CC3OC1CC(N)C(O)C(C)O1` (configuration not stated): the T/C (dose: 25.0 mg/kg/injection, schedule: Q04DX003 (ip), vehicle: water) was 142 % of control.
Take `CC(=O)Oc1cccnc1C(C#N)C#N`: the survivor count by setting is: (dose: 100.0 mg/kg/injection, schedule: Q01DX005 (ip), vehicle: saline with Tween-80) 1 of 6; (dose: 200.0 mg/kg/injection, schedule: Q01DX005 (ip), vehicle: saline with Tween-80) 0 of 6.
Turning to `O=Cc1ccc(C(Cl)(Cl)Cl)cc1`, the T/C is, setting by setting: (dose: 100.0 mg/kg/injection, schedule: Q01DX009 (ip), vehicle: saline with Tween-80) 125 % of control; (dose: 264.0 mg/kg/injection, schedule: Q04DX003 (ip), vehicle: saline with Tween-80) 136 % of control. The survivor count under setting [4] is recorded as 3 of 6 and the survivor count (dose: 600.0 mg/kg/injection, schedule: Q04DX003 (ip), vehicle: saline with Tween-80) is on record as 6 of 6.
Take `CN(C)c1ccc(/C=C/c2ccnc3ccccc23)c(Cl)c1`: the survivor count under setting [4] is listed as 3 of 6.
In the case of `c1csc(CSc2ncnc3nc[nH]c23)c1`, the survivor count under setting [4] is on record as 4 of 6.
As to `C=CCN(CC=C)P(=O)(N1CC1)N1CC1C` (configuration not stated), the T/C runs as follows: (dose: 0.36 mg/kg/injection, schedule: Q01DX009 (ip), vehicle: saline) 125 and 145 % of control; (dose: 0.5 mg/kg/injection, schedule: Q04DX003 (ip), vehicle: saline) 130 % of control; (dose: 0.56 mg/kg/injection, schedule: Q01DX009 (ip), vehicle: saline) 137 % of control; (dose: 0.63 mg/kg/injection, schedule: Q01DX009 (ip), vehicle: saline) 136 % of control; (dose: 0.88 mg/kg/injection, schedule: Q04DX003 (ip), vehicle: saline) 145 % of control; (dose: 1.0 mg/kg/injection, schedule: Q04DX003 (ip), vehicle: saline) 130 % of control. Also, the T/C is 86, 92, 104, 132, 145 % of control (dose: 1.25 mg/kg/injection, schedule: Q01DX009 (ip), vehicle: saline) and 131 % of control (dose: 1.25 mg/kg/injection, schedule: Q04DX003 (ip), vehicle: saline). For the same compound, the survivor count is reported as 6 of 6 (dose: 1.87 mg/kg/injection, schedule: Q01DX009 (ip), vehicle: saline); 6 of 6 (dose: 2.5 mg/kg/injection, schedule: Q01DX009 (ip), vehicle: saline); 6 of 6 (dose: 5.0 mg/kg/injection, schedule: Q01DX009 (ip), vehicle: saline); 6 of 6 (dose: 10.0 mg/kg/injection, schedule: Q04DX003 (ip), vehicle: saline); 5 of 6 (dose: 20.0 mg/kg/injection, schedule: Q04DX003 (ip), vehicle: saline).
`O=CNC(Cc1ccc(N(CCCl)CCCl)cc1)C(=O)O` (configuration not stated): the T/C was 140 % of control (dose: 11.0 mg/kg/injection, schedule: Q04DX003 (ip), vehicle: saline); 125 % of control (dose: 19.0 mg/kg/injection, schedule: Q04DX003 (ip), vehicle: Klucel (hydroxypropylcellulose) (HPC)); 136 % of control (dose: 90.0 mg/kg/injection, schedule: Q04DX003 (ip), vehicle: Klucel (hydroxypropylcellulose) (HPC)); 136 % of control under setting [3]. Further, the survivor count runs as follows: under setting [1], 5 of 6; (dose: 200.0 mg/kg/injection, schedule: Q04DX003 (ip), vehicle: Klucel (hydroxypropylcellulose) (HPC)) 4 of 6; under setting [5], 6 of 6; (dose: 300.0 mg/kg/injection, schedule: Q04DX003 (ip), vehicle: Klucel (hydroxypropylcellulose) (HPC)) 3 of 6; (dose: 400.0 mg/kg/injection, schedule: Q04DX003 (ip), vehicle: Klucel (hydroxypropylcellulose) (HPC)) 6 of 6; under setting [2], 0 of 6.
As for `CCOC(=O)/C(N=O)=C(\O)c1ccc2ccccc2n1`, under “dose: 12.5 mg/kg/injection, schedule: Q01DX009 (ip), vehicle: water”, the T/C is 128 % of control.
Take `CCN(CC)P(=O)(N1CC1)N1CC1`: the T/C (dose: 16.5 mg/kg/injection, schedule: Q04DX003 (ip), vehicle: saline) was 140 % of control. The survivor count reads like this: (dose: 25.0 mg/kg/injection, schedule: Q04DX003 (ip), vehicle: saline) 6 of 6; (dose: 37.5 mg/kg/injection, schedule: Q04DX003 (ip), vehicle: saline) 3 of 6 and 6 of 6; under setting [6], 2 of 6; (dose: 200.0 mg/kg/injection, schedule: Q04DX003 (ip), vehicle: saline) 0 of 6; (dose: 400.0 mg/kg/injection, schedule: Q04DX003 (ip), vehicle: saline) 0 of 6.
In the case of `O=C(NCCNCc1ccccc1)c1ccccc1`, the survivor count reads like this: (dose: 50.0 mg/kg/injection, schedule: Q04DX003 (ip), vehicle: water) 3 of 6; (dose: 200.0 mg/kg/injection, schedule: Q01DX009 (ip), vehicle: water) 0 of 6; (dose: 200.0 mg/kg/injection, schedule: Q04DX003 (ip), vehicle: water) 0 of 6.
As for `N=C(N)SC(c1ccccc1)c1ccccc1`, the survivor count (dose: 400.0 mg/kg/injection, schedule: Q01DX001 (ip), vehicle: Klucel (hydroxypropylcellulose) (HPC)) is reported as 0 of 6.
Consider `C[N+](C)(Cn1ncc2ccc([N+](=O)[O-])cc21)Cn1ncc2ccc([N+](=O)[O-])cc21`, for which the survivor count by setting is: under setting [5], 4 of 6; under setting [2], 0 of 6.
In the case of `COC(=O)C1C2CC[N+]3(CCCCC13)O2` (configuration not stated), the survivor count (dose: 25.0 mg/kg/injection, schedule: Q01DX009 (ip), vehicle: saline) was 1 of 6; the survivor count (dose: 50.0 mg/kg/injection, schedule: Q01DX009 (ip), vehicle: saline) is 1 of 6; the survivor count (dose: 100.0 mg/kg/injection, schedule: Q01DX009 (ip), vehicle: saline) was 4 of 6; the survivor count (dose: 200.0 mg/kg/injection, schedule: Q01DX009 (ip), vehicle: saline) is recorded as 0 of 6.
On to `O=C(Nc1ccc(C(=O)Nc2cc(S(=O)(=O)O)cc3cccc(S(=O)(=O)O)c23)cc1)Nc1ccc(C(=O)Nc2cc(S(=O)(=O)O)cc3cccc(S(=O)(=O)O)c23)cc1`, for which, under setting [1], the survivor count is on record as 2 of 6.
As for `Nc1ccc2c(-c3ccc([N+](=O)[O-])cc3)cc(=O)[nH]c2n1`, under setting [6], the survivor count is given as 6 of 6.
